The text below walks through data of PMC3431874, “A Novel Cyclodextrin Glycosyltransferase from Alkaliphilic Amphibacillus sp. NPST-10: Purification and Properties” (International Journal of Molecular Sciences, 2012).

Structures are written as SMILES.

For this data set, the system named is T1, CGTase from Amphibacillus sp. NPST-10.
T1 construct: gene cgt; native extracellular enzyme purified from culture supernatant (corn starch adsorption, DEAE-cellulose); 92 kDa by SDS-PAGE; monomer
Put plainly: cyclization assay, phenolphthalein colorimetry. Conditions: 1% starch, 50 mM Tris-HCl pH 8, 50 °C; reaction product. It counts as biochemical. An excerpt: cyclization assay, phenolphthalein colorimetry on CGTase from Amphibacillus sp. NPST-10
On to `OC[C@H]1O[C@@H]2O[C@H]3[C@H](O)[C@@H](O)[C@@H](O[C@H]4[C@H](O)[C@@H](O)[C@@H](O[C@H]5[C@H](O)[C@@H](O)[C@@H](O[C@H]6[C@H](O)[C@@H](O)[C@@H](O[C@H]7[C@H](O)[C@@H](O)[C@@H](O[C@H]1[C@H](O)[C@H]2O)O[C@@H]7CO)O[C@@H]6CO)O[C@@H]5CO)O[C@@H]4CO)O[C@@H]3CO` [α-CD], for which the “Residual Activity (%) / 1 mM” value turned out to be 68.7 ± 2.3%.

As for `OC[C@H]1O[C@@H]2O[C@H]3[C@H](O)[C@@H](O)[C@@H](O[C@H]4[C@H](O)[C@@H](O)[C@@H](O[C@H]5[C@H](O)[C@@H](O)[C@@H](O[C@H]6[C@H](O)[C@@H](O)[C@@H](O[C@H]7[C@H](O)[C@@H](O)[C@@H](O[C@H]8[C@H](O)[C@@H](O)[C@@H](O[C@H]1[C@H](O)[C@H]2O)O[C@@H]8CO)O[C@@H]7CO)O[C@@H]6CO)O[C@@H]5CO)O[C@@H]4CO)O[C@@H]3CO` [β-CD], the “Residual Activity (%) / 1 mM” value amounted to 45.7 ± 2.2%.

With `OC[C@H]1O[C@@H]2O[C@H]3[C@H](O)[C@@H](O)[C@@H](O[C@H]4[C@H](O)[C@@H](O)[C@@H](O[C@H]5[C@H](O)[C@@H](O)[C@@H](O[C@H]6[C@H](O)[C@@H](O)[C@@H](O[C@H]7[C@H](O)[C@@H](O)[C@@H](O[C@H]8[C@H](O)[C@@H](O)[C@@H](O[C@H]9[C@H](O)[C@@H](O)[C@@H](O[C@H]1[C@H](O)[C@H]2O)O[C@@H]9CO)O[C@@H]8CO)O[C@@H]7CO)O[C@@H]6CO)O[C@@H]5CO)O[C@@H]4CO)O[C@@H]3CO` [γ-CD], the “Residual Activity (%) / 1 mM” value was determined as 54.2 ± 1.8%.
